Test results as given in paper PMC7542178.
These are yes or no findings as the source states them, for the method shown. Binding seen in cells or lysates may run through a third protein.

Biological target: T1, biotinylated scrambled N-NAM
T1 sequence (peptide, biotinylated (site not stated)): GLIRWNRPPRNP
Assay: pull-down; HUVECs (methods: HUVEC lysates) incubated with bt-N-NAM (25-500 nM) or bt-scN-NAM (200 nM) for 3 h; streptavidin agarose beads 24 h at 4 °C; immunoblot with anti-Ninj1; only the target purified

B1: Nerve injury-induced protein 1 (Ninjurin 1), endogenous in HUVECs (protein, UniProt Q92982 1-152)
chain: MDSGTEEYELNGGLPPGTPGSPDASPARWGWRHGPINVNHYASKKSAAESMLDIALLMANASQLKAVVEQGPSFAFYVPLVVLISISLVLQIGVGVLLIFLVKYDLNNPAKHAKLDFLNNLATGLVFIIVVVNIFITAFGVQKPLMDMAPQQ
binding: no binding (tested: 200 nM)
